Binding data for three substances are collected here from PMC10694608.

Chains of the proteins cited; added tags and fusions are not shown.
UniProt P61586: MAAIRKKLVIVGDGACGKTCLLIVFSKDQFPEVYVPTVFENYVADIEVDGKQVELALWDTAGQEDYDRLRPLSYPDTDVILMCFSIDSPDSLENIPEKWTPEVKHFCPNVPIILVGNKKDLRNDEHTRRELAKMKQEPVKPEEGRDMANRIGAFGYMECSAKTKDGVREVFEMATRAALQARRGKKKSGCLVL
UniProt Q16513: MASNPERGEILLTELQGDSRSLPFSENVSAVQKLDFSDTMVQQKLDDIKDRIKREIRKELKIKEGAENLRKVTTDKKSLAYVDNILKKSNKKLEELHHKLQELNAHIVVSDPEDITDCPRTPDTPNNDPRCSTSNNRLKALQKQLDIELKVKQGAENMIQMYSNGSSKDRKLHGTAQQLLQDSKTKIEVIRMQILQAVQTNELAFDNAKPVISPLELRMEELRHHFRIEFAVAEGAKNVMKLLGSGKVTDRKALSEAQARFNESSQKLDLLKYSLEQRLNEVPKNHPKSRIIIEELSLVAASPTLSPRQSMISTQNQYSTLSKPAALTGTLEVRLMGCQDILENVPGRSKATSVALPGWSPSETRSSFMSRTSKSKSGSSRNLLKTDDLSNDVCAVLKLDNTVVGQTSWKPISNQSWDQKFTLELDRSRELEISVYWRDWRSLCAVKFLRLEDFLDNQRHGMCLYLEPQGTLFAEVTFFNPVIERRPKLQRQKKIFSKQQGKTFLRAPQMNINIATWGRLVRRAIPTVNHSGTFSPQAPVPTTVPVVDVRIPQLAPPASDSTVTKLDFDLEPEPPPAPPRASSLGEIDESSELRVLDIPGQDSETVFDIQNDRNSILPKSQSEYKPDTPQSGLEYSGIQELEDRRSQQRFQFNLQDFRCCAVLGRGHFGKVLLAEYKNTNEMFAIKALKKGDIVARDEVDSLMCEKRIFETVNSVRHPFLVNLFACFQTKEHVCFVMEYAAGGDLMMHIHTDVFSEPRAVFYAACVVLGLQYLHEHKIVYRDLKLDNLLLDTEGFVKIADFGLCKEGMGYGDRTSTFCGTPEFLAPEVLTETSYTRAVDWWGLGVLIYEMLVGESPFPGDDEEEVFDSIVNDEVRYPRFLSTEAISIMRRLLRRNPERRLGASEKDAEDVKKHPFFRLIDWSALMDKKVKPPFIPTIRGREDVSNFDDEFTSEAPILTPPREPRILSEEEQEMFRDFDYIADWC
UniProt Q9BST9: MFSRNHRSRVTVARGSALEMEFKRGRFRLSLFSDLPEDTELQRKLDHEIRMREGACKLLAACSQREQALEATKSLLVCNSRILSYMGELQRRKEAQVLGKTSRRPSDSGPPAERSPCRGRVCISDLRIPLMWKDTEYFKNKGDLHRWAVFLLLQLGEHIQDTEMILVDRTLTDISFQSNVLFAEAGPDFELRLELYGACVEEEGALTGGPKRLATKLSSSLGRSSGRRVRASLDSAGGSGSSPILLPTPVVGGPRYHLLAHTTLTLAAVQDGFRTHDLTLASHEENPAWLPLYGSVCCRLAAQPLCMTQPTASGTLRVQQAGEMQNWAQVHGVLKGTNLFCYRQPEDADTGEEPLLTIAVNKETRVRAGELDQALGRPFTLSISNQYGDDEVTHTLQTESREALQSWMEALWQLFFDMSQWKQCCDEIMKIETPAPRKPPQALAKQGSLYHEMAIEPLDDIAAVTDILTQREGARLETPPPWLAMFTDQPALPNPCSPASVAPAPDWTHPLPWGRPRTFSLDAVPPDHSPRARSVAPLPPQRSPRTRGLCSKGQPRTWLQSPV
UniProt Q6P5Z2: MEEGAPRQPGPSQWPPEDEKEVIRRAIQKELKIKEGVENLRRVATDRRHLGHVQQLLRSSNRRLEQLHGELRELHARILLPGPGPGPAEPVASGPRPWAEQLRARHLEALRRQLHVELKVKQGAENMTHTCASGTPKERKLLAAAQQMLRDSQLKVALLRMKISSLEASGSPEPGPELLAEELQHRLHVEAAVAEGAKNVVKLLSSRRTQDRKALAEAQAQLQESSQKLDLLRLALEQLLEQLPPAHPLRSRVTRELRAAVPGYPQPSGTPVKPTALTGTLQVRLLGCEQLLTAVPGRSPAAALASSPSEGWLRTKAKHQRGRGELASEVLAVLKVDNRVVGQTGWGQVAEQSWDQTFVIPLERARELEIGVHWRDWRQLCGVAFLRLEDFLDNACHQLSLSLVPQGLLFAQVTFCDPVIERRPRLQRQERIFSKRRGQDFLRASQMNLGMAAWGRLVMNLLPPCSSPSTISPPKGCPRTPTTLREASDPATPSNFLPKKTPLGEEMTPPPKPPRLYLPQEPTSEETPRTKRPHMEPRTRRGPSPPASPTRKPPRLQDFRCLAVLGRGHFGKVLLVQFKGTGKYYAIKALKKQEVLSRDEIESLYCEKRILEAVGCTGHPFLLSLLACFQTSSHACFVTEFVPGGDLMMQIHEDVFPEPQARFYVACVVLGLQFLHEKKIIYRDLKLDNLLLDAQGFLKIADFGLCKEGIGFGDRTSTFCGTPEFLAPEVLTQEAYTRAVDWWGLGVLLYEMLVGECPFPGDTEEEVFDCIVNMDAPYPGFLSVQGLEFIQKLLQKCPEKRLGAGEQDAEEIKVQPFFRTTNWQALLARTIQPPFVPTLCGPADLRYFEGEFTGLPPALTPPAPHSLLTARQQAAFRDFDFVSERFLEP

These are yes or no findings as the source states them, for the method shown. Binding seen in cells or lysates may run through a third protein. Here binding means that the protein was enriched with, or labelled near, the bait; the list need not be complete.

This assay concerns the target FLAG-tagged RhoA (human) (UniProt P61586). As to the kind of experiment: affinity purification with mass spectrometry; FLAG-tagged RhoA induced with 1 μM doxycycline for 42 h in Gαq-expressing HEK293 cells; lysate (50 mM Tris pH 7.4, 150 mM NaCl, 1 mM EDTA, 0.5% NP40) on anti-FLAG M2 magnetic beads, 4°C, 2 h; eluted with 3xFLAG peptide; uninduced samples as controls; SAINTexpress BFDR =< 0.05.
Take PKN2 (from UniProt Q16513 1-984): the binding result is “binds”.
Consider Rhotekin (from UniProt Q9BST9 1-563), for which the binding result was “binds”.
To PKN3 (from UniProt Q6P5Z2 1-889) belongs “binds”.
